Test results as given in publication PMC2747018.
Results are given in words; binding and its absence hold for the method and conditions named. In cells and extracts the contact can be indirect. A yes stands for co-enrichment or nearness to the bait. Other partners may have been found.

Amino acid sequences for entries named in this document (tags omitted).
UniProt P09012: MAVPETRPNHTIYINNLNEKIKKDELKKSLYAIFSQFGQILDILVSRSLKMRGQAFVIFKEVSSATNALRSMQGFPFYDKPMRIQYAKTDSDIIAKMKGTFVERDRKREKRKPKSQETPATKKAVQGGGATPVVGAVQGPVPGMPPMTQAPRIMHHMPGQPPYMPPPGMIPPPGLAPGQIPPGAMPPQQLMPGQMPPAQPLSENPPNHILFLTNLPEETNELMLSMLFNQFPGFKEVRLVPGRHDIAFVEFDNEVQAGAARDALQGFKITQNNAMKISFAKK
UniProt P62316: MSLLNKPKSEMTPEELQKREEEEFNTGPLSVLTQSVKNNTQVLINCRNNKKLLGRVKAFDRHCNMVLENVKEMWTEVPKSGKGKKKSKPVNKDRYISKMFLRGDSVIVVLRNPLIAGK
UniProt P62318: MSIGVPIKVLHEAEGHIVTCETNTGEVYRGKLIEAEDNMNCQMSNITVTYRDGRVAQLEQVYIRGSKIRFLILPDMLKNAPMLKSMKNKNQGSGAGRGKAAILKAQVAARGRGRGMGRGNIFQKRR
UniProt P62304: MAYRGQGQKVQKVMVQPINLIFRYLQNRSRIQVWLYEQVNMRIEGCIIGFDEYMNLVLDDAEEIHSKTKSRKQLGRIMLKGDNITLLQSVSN
UniProt P62308: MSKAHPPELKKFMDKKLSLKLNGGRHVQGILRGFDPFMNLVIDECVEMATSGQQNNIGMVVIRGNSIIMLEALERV
UniProt P09234: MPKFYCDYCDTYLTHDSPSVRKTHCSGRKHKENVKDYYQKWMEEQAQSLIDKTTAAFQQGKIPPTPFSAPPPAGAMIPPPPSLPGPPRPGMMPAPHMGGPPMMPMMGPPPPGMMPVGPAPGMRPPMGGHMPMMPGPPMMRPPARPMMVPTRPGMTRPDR

Target: U1-A protein of the native human U1 snRNP (human (endogenous in HeLa)) (UniProt P09012)
Assay: affinity purification with mass spectrometry; U1 snRNP immunoprecipitated from HeLa nuclear extract with an affinity-purified antibody against U1-A aa 1-14 on Protein A Sepharose (IP150: 20 mM Hepes pH 7.9, 150 mM NaCl, 1.5 mM MgCl2, 0.5 mM DTT, 3 h, 4°C), eluted with the antigenic peptide, 5-20% glycerol gradient; proteins identified by proteomic analysis and LC-MS of the denatured complex; the complex holds U1 snRNA

Substance	binding
Sm-D2 (from UniProt P62316 1-118)	binds
Sm-D3 (from UniProt P62318 1-126)	binds
Sm-E (from UniProt P62304 1-92)	binds
Sm-G (from UniProt P62308 1-76)	binds
U1-C protein of the native human U1 snRNP (from UniProt P09234 1-159)	binds
